In the supplement of paper PMC12067093, “Discovery and optimisation of a covalent ligand for TRIM25 and its application to targeted protein ubiquitination” (Chemical Science, 2025):
Some of the results follow.

Chains of the proteins cited; added tags and fusions are not shown. Lines headed by an entry give the natural chain unless they say otherwise; changes in a name come on top.
UniProt Q92620: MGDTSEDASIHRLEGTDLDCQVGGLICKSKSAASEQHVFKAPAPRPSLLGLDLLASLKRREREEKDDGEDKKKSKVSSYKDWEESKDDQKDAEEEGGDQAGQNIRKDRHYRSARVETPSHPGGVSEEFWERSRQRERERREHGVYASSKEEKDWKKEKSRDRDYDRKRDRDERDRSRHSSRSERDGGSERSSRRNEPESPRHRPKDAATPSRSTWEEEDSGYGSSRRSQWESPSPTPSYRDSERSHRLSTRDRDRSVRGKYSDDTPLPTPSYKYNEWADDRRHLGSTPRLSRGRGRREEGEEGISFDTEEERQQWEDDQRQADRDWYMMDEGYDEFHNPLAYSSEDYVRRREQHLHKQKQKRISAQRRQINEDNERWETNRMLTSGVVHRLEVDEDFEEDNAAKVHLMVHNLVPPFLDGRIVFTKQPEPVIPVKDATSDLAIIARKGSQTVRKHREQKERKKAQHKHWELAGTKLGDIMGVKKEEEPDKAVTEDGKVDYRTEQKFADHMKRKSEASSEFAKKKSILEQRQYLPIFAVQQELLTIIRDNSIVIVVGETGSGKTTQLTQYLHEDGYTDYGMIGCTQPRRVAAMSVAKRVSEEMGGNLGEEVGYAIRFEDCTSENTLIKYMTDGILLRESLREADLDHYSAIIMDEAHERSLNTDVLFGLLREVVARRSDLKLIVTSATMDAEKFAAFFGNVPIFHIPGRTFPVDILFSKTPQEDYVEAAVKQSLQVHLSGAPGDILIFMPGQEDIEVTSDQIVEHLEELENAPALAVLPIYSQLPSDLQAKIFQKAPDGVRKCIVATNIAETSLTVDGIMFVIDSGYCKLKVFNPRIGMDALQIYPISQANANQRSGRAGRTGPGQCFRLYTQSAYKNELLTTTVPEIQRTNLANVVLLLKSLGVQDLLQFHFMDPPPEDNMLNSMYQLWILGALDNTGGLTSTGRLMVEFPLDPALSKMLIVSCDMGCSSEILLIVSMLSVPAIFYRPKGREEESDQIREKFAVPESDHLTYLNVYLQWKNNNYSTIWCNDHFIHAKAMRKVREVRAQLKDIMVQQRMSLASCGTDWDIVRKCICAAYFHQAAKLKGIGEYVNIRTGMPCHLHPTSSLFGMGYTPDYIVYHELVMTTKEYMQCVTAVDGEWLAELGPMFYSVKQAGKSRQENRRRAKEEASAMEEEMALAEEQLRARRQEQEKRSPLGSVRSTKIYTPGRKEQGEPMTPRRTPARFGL
UniProt Q08211, whole entry, looked up: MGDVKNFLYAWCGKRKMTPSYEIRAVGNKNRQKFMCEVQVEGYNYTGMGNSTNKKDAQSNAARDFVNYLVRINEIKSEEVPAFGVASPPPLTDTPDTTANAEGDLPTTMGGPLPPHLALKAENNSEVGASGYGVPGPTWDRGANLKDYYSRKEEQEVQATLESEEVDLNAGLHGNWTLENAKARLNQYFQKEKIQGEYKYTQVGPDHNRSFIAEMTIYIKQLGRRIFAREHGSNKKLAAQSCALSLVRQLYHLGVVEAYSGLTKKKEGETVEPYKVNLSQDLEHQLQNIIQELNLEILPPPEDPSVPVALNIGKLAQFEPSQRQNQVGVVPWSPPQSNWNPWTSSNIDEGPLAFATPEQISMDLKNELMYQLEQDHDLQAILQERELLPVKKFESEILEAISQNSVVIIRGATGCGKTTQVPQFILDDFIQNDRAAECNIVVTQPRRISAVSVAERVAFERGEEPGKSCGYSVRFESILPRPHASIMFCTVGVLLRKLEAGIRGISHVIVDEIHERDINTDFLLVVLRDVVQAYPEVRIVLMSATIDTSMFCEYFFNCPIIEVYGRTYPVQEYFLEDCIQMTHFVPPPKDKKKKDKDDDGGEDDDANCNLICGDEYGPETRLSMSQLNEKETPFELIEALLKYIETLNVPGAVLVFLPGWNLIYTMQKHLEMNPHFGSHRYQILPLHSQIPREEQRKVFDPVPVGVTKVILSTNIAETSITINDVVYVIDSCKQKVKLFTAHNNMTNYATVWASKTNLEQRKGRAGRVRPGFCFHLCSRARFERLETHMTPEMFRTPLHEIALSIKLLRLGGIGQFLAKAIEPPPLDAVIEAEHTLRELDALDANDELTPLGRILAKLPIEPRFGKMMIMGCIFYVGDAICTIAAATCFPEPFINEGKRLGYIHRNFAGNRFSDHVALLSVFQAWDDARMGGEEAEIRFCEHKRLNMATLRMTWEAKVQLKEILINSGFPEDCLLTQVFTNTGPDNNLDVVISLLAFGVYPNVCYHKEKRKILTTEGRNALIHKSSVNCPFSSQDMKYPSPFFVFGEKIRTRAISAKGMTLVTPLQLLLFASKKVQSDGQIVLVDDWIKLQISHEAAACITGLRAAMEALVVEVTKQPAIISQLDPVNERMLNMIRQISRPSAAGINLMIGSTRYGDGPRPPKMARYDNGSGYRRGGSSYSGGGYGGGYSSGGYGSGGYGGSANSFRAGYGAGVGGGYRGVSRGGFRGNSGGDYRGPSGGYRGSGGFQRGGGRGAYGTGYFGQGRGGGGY
UniProt Q15398: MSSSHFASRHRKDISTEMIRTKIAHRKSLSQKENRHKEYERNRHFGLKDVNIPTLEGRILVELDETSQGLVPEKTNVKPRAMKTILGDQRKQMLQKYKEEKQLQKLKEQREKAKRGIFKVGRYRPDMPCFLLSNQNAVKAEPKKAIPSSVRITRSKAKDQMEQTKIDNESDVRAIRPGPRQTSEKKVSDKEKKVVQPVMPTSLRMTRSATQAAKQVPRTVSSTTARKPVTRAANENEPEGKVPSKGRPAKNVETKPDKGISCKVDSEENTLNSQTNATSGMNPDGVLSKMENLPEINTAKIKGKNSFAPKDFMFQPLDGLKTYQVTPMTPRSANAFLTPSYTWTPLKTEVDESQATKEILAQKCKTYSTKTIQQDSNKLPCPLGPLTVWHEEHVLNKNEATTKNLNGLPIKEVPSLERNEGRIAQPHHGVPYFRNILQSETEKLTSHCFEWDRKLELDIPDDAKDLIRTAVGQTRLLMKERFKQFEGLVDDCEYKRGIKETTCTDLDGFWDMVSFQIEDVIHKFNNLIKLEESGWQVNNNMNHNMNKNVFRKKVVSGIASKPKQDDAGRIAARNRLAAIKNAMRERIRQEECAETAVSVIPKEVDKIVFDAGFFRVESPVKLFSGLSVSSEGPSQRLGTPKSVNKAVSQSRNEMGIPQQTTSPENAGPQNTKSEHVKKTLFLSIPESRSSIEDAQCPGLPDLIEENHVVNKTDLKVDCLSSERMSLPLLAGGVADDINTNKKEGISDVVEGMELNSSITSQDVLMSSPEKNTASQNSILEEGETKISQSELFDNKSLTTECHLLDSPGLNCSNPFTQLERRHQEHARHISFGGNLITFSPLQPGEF
UniProt O00429, whole entry, looked up: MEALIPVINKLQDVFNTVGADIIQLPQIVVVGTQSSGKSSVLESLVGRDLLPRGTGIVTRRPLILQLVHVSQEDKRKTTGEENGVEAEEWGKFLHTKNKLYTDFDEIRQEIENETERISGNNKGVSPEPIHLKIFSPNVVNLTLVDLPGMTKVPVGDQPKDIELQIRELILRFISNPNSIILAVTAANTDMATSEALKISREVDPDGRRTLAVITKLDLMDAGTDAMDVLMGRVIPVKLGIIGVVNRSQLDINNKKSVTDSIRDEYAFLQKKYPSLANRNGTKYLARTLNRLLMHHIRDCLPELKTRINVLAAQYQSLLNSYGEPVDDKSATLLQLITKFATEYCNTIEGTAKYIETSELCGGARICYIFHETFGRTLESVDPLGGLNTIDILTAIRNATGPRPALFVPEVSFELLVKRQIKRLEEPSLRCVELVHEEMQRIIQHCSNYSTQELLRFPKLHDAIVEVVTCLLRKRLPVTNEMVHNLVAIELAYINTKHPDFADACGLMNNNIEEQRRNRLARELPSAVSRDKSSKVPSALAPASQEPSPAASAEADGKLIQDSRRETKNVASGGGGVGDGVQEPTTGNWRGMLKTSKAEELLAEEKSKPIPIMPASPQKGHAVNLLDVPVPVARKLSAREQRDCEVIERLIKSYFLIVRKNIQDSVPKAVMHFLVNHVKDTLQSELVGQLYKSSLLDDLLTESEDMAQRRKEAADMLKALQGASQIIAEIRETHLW
UniProt Q7L2E3: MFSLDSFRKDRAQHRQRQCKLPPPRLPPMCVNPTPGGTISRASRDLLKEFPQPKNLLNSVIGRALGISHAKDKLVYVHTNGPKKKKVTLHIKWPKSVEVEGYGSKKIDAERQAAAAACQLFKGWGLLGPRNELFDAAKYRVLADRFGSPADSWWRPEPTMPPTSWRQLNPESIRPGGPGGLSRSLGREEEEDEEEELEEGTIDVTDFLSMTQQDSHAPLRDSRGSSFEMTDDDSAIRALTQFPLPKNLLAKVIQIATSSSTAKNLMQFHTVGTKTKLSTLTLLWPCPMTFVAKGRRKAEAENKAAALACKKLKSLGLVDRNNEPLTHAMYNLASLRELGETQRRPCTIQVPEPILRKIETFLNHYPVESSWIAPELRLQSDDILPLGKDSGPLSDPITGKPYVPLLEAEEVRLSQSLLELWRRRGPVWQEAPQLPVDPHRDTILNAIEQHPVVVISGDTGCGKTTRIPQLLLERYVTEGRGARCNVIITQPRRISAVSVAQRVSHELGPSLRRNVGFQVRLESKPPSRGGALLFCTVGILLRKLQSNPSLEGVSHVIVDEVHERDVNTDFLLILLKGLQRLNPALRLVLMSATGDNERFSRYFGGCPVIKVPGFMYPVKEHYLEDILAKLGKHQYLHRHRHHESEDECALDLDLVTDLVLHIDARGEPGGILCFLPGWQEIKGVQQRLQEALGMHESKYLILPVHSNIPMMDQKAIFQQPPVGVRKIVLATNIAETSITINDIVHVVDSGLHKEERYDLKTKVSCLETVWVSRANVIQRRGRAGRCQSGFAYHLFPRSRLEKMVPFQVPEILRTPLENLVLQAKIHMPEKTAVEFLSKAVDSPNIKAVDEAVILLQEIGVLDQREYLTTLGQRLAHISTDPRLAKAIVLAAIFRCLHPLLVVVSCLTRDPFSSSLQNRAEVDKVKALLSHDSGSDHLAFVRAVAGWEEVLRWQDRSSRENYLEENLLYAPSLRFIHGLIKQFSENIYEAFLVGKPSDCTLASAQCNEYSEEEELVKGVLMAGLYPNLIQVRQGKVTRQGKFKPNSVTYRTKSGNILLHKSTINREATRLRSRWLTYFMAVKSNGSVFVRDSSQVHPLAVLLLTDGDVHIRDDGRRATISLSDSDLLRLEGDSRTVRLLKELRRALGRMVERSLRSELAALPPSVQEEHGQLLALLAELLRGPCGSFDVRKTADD
UniProt P09622, whole entry, looked up: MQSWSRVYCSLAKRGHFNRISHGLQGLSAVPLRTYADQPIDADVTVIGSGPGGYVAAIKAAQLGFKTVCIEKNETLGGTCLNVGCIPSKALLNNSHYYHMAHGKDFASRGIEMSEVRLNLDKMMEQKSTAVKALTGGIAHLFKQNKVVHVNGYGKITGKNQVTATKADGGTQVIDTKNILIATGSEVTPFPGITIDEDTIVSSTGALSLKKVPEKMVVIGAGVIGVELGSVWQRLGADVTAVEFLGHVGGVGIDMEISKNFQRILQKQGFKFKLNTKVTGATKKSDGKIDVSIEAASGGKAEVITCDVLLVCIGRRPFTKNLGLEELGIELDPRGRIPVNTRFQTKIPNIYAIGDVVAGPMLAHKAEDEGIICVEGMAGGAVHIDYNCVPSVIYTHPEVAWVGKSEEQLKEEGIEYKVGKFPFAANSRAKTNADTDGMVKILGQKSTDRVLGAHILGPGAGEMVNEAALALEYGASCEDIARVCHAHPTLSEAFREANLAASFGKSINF
UniProt O43143: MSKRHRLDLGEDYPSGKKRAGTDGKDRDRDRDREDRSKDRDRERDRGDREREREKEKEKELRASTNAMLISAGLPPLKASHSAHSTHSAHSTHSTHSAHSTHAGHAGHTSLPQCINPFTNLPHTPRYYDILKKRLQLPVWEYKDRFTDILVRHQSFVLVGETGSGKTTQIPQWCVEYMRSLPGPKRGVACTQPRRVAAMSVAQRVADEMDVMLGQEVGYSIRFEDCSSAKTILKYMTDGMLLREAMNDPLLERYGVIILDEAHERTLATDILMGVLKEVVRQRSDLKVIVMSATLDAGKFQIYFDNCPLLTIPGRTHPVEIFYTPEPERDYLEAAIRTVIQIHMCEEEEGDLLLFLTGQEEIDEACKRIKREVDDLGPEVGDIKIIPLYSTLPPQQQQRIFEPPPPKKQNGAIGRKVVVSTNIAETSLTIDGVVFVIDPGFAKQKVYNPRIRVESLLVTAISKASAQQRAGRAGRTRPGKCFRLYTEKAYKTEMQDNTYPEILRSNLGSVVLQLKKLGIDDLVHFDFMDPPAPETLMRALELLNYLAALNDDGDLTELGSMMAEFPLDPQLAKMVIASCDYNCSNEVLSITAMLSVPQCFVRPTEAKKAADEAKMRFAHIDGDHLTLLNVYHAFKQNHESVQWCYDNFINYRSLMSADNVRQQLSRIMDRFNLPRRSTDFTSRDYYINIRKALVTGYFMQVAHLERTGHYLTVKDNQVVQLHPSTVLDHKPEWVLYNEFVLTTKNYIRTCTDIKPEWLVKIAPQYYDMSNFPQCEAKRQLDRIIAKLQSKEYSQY

Compound: Cc1cc(ccc1-c1ccccc1)C(=O)N1CCCN(CC1)C(=O)CCl [compound 10]
Assay: probe-labelled cysteine peptide fold change vs DMSO (competition) (log2 fold change); higher = less target engagement (more negative = stronger competition)
Details: THP-1, incubation time: 4 h
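Note: competitive profiling in live THP-1 cells: cysteine peptides tagged with an iodoacetamide desthiobiotin (IA-DTB) probe, intensity after compound treatment relative to DMSO-treated cells.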

Row | Target | probe-labelled cysteine peptide fold change (10 µM) | probe-labelled cysteine peptide fold change (50 µM)
1 | DHX38_Q92620_20_GDTSEDASIHRLEGTDLDCQVGGLICK (UniProt Q92620) | 0.197 | -0.112
2 | DHX29_Q7Z478_1059_KIGACELNEPK (UniProt Q7Z478) | -0.0385 | -0.0929
3 | DMAC2_Q9NW81_159_CCHVDDWCLSR (UniProt Q9NW81) | -0.0147 | -0.197
4 | DHX9_Q08211_415_GATGCGK (UniProt Q08211) | -0.0278 | -0.0317
5 | DLGAP5_Q15398_381_TIQQDSNKLPCPLGPLTVWHEEHVLNK (UniProt Q15398) | -0.0365 | -0.701
6 | DHX35_Q9H5Z1_233_FRDFFNQNETSDPARDTCVILTVEGR (UniProt Q9H5Z1) | 0.0242 | -0.0107
7 | DIAPH1_O60610_796_LVAEDLSQDCFWTK (UniProt O60610) | -0.0959 | -0.0392
8 | DLAT_P10515_586_NFSAIINPPQACILAIGASEDK (UniProt P10515) | 0.0808 | 0.123
9 | DIDO1_Q9BTC0_288+296_CEEWFHGDCVGISEAR (UniProt Q9BTC0) | -0.108 | -0.324
10 | DHX9_Q08211_242_LAAQSCALSLVR (UniProt Q08211) | 0.198 | 0.152
11 | DNM1L_O00429_431_CVELVHEEMQR (UniProt O00429) | -0.0261 | 0.0516
12 | DHX58_Q96C10_322_TQILCAER (UniProt Q96C10) | -0.169 | -0.332
13 | DIAPH2_O60879_484_LDIDLTHLIDSCVNK (UniProt O60879) | 0.0185 | -0.177
14 | DNAJA4_Q8WW22_368_EFCPNEQNWR (UniProt Q8WW22) | -0.223 | -0.435
15 | DIS3L2_Q8IYB7_303_DYANTLFICR (UniProt Q8IYB7) | 0.0602 | -0.0215
16 | DHTKD1_Q96HY7_429_DVIIDLLCYR (UniProt Q96HY7) | 0.0421 | 0.211
17 | DNAJA3_Q96EY1_256_VQHCHYCGGSGMETINTGPFVMR (UniProt Q96EY1) | 0.00348 | -0.115
18 | DIS3L2_Q8IYB7_396_DLDDALSCKPLADGNFK (UniProt Q8IYB7) | -0.0741 | -0.141
19 | DNMT1_P26358_62_NQLCDLETK (UniProt P26358) | -0.156 | -0.373
20 | DNAJC13_O75165_1178_SILGHILPEAMVCYLENYEPEK (UniProt O75165) | 0.018 | 0.138
21 | DNAJA1_P31689_153_KGAVECCPNCR (UniProt P31689) | 0.248 | -0.168

Row | Target | probe-labelled cysteine peptide fold change (10 µM) | probe-labelled cysteine peptide fold change (50 µM)
22 | DNAJA3_Q96EY1_236_EFTVNIMDTCER (UniProt Q96EY1) | -0.1 | -0.195
23 | DHX30_Q7L2E3_535_GGALLFCTVGILLR (UniProt Q7L2E3) | -0.765 | 0.367
24 | DNAJC10_Q8IXB1_161_EFDAAVNSGELWFVNFYSPGCSHCHDLAPTWR (UniProt Q8IXB1) | 0.269 | 0.235
25 | DHX34_Q14147_628_SAQSSPECAAAR (UniProt Q14147) | -0.184 | -0.504
26 | DNAJA2_O60884_146_NVLCSACSGQGGK (UniProt O60884) | -0.0087 | -0.408
27 | DHX9_Q08211_242_KLAAQSCALSLVR (UniProt Q08211) | 0.0869 | -0.183
28 | DHX38_Q92620_618_FEDCTSENTLIK (UniProt Q92620) | -0.0951 | 0.123
29 | DNM1L_O00429_300_DCLPELK (UniProt O00429) | -0.0496 | 0.121
30 | DHRS7_Q9Y394_172_CVLPHMIER (UniProt Q9Y394) | -0.0215 | -0.0909
31 | DLST_P36957_104_AVGDTVAEDEVVCEIETDK (UniProt P36957) | 0.279 | 0.258
32 | DNM1_Q05193_427_CVDMVISELISTVR (UniProt Q05193) | 0.252 | -0.3
33 | DNAJB1_P25685_179_VSLEEIYSGCTK (UniProt P25685) | -0.0218 | 0.255
34 | DNM2_P50570-3_427_CVDLVVSELATVIK (UniProt P50570) | 0.029 | 0.263
35 | DLD_P09622_306_AEVITCDVLLVCIGR (UniProt P09622) | 0.0292 | 0.188
36 | DNMT1_P26358_1476+1478_GVCSCVEAGK (UniProt P26358) | -1.56 | < -5
37 | DNM1L_O00429_446_IIQHCSNYSTQELLR (UniProt O00429) | -0.165 | -0.0631
38 | DHTKD1_Q96HY7_808_TLVFCSGK (UniProt Q96HY7) | 0.0936 | 0.131
39 | DHX15_O43143_774_IAPQYYDMSNFPQCEAKR (UniProt O43143) | -0.196 | -0.633
40 | DHX33_Q9H6R0_319_HLPDGCPAMLVLPLYASLPYAQQLR (UniProt Q9H6R0) | 0.0557 | 0.0596
41 | DHX8_Q14562_637_VSEEFGCCLGQEVGYTIR (UniProt Q14562) | 0.0281 | 0.569
42 | DMAC1_Q96GE9_50_TCWSCR (UniProt Q96GE9) | -0.133 | 0.143

Row | Target | probe-labelled cysteine peptide fold change (10 µM) | probe-labelled cysteine peptide fold change (50 µM)
43 | DIDO1_Q9BTC0_350_WRPGDADGTDCTSIGTIEQK (UniProt Q9BTC0) | -0.22 | 0.0275
44 | DHX16_O60231_932_VEVGLSSCQGDYIR (UniProt O60231) | -0.184 | 0.119
45 | DKC1_O60832_220_LGIFWVSCEAGTYIR (UniProt O60832) | -0.256 | 0.815
46 | DNAJC2_Q99543_276_TLVDNAYSCDPR (UniProt Q99543) | 0.219 | -0.0445
47 | DIAPH2_O60879_775_NEYDDLCEPEQFGVVMSSVK (UniProt O60879) | -0.117 | 0.261
48 | DHTKD1_Q96HY7_392_LVGCAIIHVNGDSPEEVVR (UniProt Q96HY7) | -0.0572 | -0.0728
49 | DIS3L_Q8TF46_482_GCEDVDDTLSVR (UniProt Q8TF46) | -0.331 | -0.0798
50 | DLAT_P10515_291_DVPLGTPLCIIVEK (UniProt P10515) | 0.111 | 0.148
51 | DNAJC13_O75165_2110_RADTVGLACEAINR (UniProt O75165) | 0.0477 | 0.108
52 | DHX9_Q08211_777_VRPGFCFHLCSR (UniProt Q08211) | -0.231 | -0.0284
53 | DNM2_P50570-3_427_CVDLVVSELATVIKK (UniProt P50570) | 0.333 | 0.424
54 | DHRS7_Q9Y394_233_TELATYPGIIVSNICPGPVQSNIVENSLAGEVTK (UniProt Q9Y394) | 0.0345 | 0.263
55 | DIMT1_Q9UNQ2_150_CAILMFQR (UniProt Q9UNQ2) | -0.227 | 0.381
56 | DNMT1_P26358_1499_QFNTLIPWCLPHTGNR (UniProt P26358) | 0.00655 | -0.0976
57 | DHX8_Q14562_1108_AICSGFFR (UniProt Q14562) | -0.267 | 0.29
58 | DHX15_O43143_174_TTQIPQWCVEYMR (UniProt O43143) | 0.0109 | 0.187
59 | DIAPH1_O60610_267_LLSALCILPQPEDMNER (UniProt O60610) | 0.0161 | 0.011
60 | DLAT_P10515_164_DVPIGAIICITVGKPEDIEAFK (UniProt P10515) | 0.115 | 0.118
61 | DMXL2_Q8TDJ6_2880_NVCLWDTLISPGNSLIHGFTCHDHGATVLQYAPK (UniProt Q8TDJ6) | 0.129 | 0.268
62 | DIS3_Q9Y2L1_213_LACLSEEGNEIESGK (UniProt Q9Y2L1) | -0.105 | 0.00381
63 | DIS3_Q9Y2L1_799_LLAVAIGADCTYPELTDK (UniProt Q9Y2L1) | -0.154 | -0.114

Full records as entered above:
DHTKD1_Q96HY7_392_LVGCAIIHVNGDSPEEVVR (UniProt Q96HY7) is listed as probe-labelled cysteine peptide fold change (10 µM): -0.0572; probe-labelled cysteine peptide fold change (50 µM): -0.0728
DHX15_O43143_174_TTQIPQWCVEYMR (UniProt O43143) is listed as probe-labelled cysteine peptide fold change (10 µM): 0.0109; probe-labelled cysteine peptide fold change (50 µM): 0.187
DHRS7_Q9Y394_233_TELATYPGIIVSNICPGPVQSNIVENSLAGEVTK (UniProt Q9Y394) is listed as probe-labelled cysteine peptide fold change (10 µM): 0.0345; probe-labelled cysteine peptide fold change (50 µM): 0.263
DHX8_Q14562_1108_AICSGFFR (UniProt Q14562) is listed as probe-labelled cysteine peptide fold change (10 µM): -0.267; probe-labelled cysteine peptide fold change (50 µM): 0.29

Next results.

Row | Target | probe-labelled cysteine peptide fold change (10 µM) | probe-labelled cysteine peptide fold change (50 µM)
64 | DNASE2_O00115_299_WCVSPK (UniProt O00115) | -0.0787 | -0.233
65 | DHX37_Q8IY37_456_TPLEDYSGECFR (UniProt Q8IY37) | -0.0599 | -0.138
66 | DIAPH1_O60610_1005_NAGAFGFNISFLCK (UniProt O60610) | 0.00848 | 0.104
67 | DNAJC7_Q99615_164_KVVFCMDR (UniProt Q99615) | 0.00491 | -0.2
68 | DIAPH2_O60879_821_LTFEEHINNIKPSIIAVTLACEELK (UniProt O60879) | -0.0315 | 0.25
69 | DHX8_Q14562_1062_FSNPWCYENFIQAR (UniProt Q14562) | -0.129 | -0.599
70 | DLGAP5_Q15398_492_QFEGLVDDCEYKR (UniProt Q15398) | -0.0882 | -0.0329
71 | DNAAF5_Q86Y56_349_RPVLGCR (UniProt Q86Y56) | 0.0122 | -0.193
72 | DNAJB1_P25685_269_EALCGCTVNVPTLDGR (UniProt P25685) | 0.189 | 0.163
73 | DHX57_Q6P158_881_CVIHPLHSSLSSEEQQAVFVKPPAGVTK (UniProt Q6P158) | -0.00455 | -0.0708
74 | DHX30_Q7L2E3_786_CQSGFAYHLFPR (UniProt Q7L2E3) | -0.0274 | 0.051
75 | DNMT1_P26358_580_HAQFVVEQVESYDEAGDSDEQPIFLTPCMR (UniProt P26358) | -0.0862 | 0.465
76 | DNAJC13_O75165_2082_VIHALSENELCVR (UniProt O75165) | -0.0124 | 0.0936
77 | DNAJB12_Q9NXW2_363_MGTPSCSR (UniProt Q9NXW2) | -0.312 | -0.0693
78 | DLD_P09622_85_NETLGGTCLNVGCIPSK (UniProt P09622) | 0.215 | 0.199
79 | DNAJC7_Q99615_317_LDDAIEDCTNAVK (UniProt Q99615) | 0.0825 | 0.123
80 | DIS3_Q9Y2L1_533_GTTVYLCEK (UniProt Q9Y2L1) | 0.0392 | -0.236
81 | DMTF1_Q9Y222_271_DRCRLMKDTCNTGK (UniProt Q9Y222) | -0.167 | -0.258
82 | DNAJC7_Q99615_337_RAQCYMDTEQYEEAVR (UniProt Q99615) | 0.159 | -0.215
83 | DHX9_Q08211_438_AAECNIVVTQPR (UniProt Q08211) | 0.0212 | 0.174
84 | DKC1_O60832_74_TTHYTPLACGSNPLK (UniProt O60832) | -0.00845 | 0.288
